This passage reports binding results from paper PMC3360006.

Amino acid sequences for entries named in this document (tags omitted).
UniProt P61586: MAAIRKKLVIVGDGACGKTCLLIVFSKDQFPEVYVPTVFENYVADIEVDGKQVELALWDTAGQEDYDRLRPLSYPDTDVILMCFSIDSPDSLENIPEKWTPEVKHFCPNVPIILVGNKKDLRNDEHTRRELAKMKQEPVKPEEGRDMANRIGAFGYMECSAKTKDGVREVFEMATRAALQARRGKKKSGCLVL

These are yes or no findings as the source states them, for the method shown. In cells and extracts the contact can be indirect. Some binding calls cover weakened binding; strength is not graded here.

The target in this assay is GST-RhoA (UniProt P61586). As to the kind of experiment: pull-down; GST-RhoA beads loaded with 0.1 mmol/L GTPgammaS (30 °C, 15 min) as bait; incubated with total cellular protein of MDA-MB-231 cells at 4 °C for 90 min; bound Daam1 detected by immunoblotting; cells serum-starved and treated with 500 ng/mL rWnt5a for 0-60 min, or transfected with Dvl2 mutants, Dvl2 siRNA or RhoA constructs; only the target purified.

“Dishevelled-associated activator of morphogenesis 1 (Daam1) (from UniProt Q9Y4D1-1 1-1078)”: the binding result is given as “binds”.
